Assay results: the supplement of paper PMC8497498
± gives the standard deviation of the averaged measurements. The list shows a part of the results. The data scatter; read single values as rough.

Tests used:
Conditions in all cases: 10 µM
[1] = system: Plasmodium vivax liver stage (primary human hepatocyte culture); test: hypnozoite quantity inhibition (% inhibition); higher = more active against hypnozoites
[2] = system: Plasmodium vivax liver stage (primary human hepatocyte culture); test: schizont net growth area inhibition (% inhibition); higher = more active against liver schizonts
[3] = system: primary human hepatocytes; test: hepatic nuclei reduction relative to DMSO (100 - % of negative control); higher = more toxic to hepatocytes
[4] = assay mode: Prophylactic (treated before or shortly after infection), fixed day 6 post-infection
[5] = assay mode: Radical Cure (treated from day 5 post-infection for 3 days), fixed day 8 post-infection

Row | Compound | hypnozoite quantity inhibition [1, 4] | hypnozoite quantity inhibition [1, 5] | schizont net growth area inhibition [2, 4] | schizont net growth area inhibition [2, 5] | hepatic nuclei reduction [3, 4] | hepatic nuclei reduction [3, 5]
1 | COc1ccc(C=C2SC(Nc3ccccc3)=NC2=O)cc1 | -1.3 | 51.9 | -21.4 | 1.8 | -17% | 2%
2 | Cc1cc(Nc2ccc(S(F)(F)(F)(F)F)cc2)n2nc(C(C)(F)F)nc2n1 | -22 | 41.9 ± 31 | 81.6 | 67.9 ± 35 | -18% | -8.5 ± 7.8%
3 | NCC(c1cccs1)S(=O)(=O)c1ccccc1 (stereo not drawn) | 12 | -5 | -45.5 | -32.3 | -9% | 6%
4 | CC(NCc1ccccc1)c1cc(Cl)ccc1O (stereo not drawn) | 6.3 | 29.2 | -71.6 | -30.6 | -4% | -5%
5 | COc1cc(NC(=O)Cc2nn(C)c(=O)c3ccccc23)ccc1Cl | 14 | 6 | 30.8 | -32.1 | -7% | -6%
6 | CCC1OC(=O)C(C)C(OC2CC(C)(OC)C(O)C(C)O2)C(C)C(OC2OC(C)CC(N(C)C)C2O)C(C)(O)CC(C)CN(C)C(C)C(O)C1(C)O (stereo not drawn) | -59 | 4 | 39.5 | 34.1 | 0% | 0%
7 | CC(C)(C)n1nc(Cc2cccc3ccccc23)c2c(N)ncnc21 | -5 | -77 | -4 | -18.4 | -10% | -11%
8 | CCOC(=O)c1c(C)n(-c2ccc(Cl)cc2)c2ccc(OC(=O)C=Cc3ccccc3)cc12 | 3.9 | 38.2 | 30.9 | -16 | -8% | 1%
9 | CC(C)N=c1cc2n(-c3ccc(Cl)cc3)c3ccccc3nc-2cc1Nc1ccc(Cl)cc1 | -11 | -23 | -9.1 | -102 | 14% | 9%
10 | N=c1n(CCN2CCCCC2)c2ccccc2n1CC(O)c1cccc(Br)c1 (stereo not drawn) | -42.2 | 35.9 | 24.1 | 67.6 | -8% | 1%
11 | CC[C@H](CO)NCCN[C@H](CC)CO | -4 | 3 | 32.3 | 4.6 | 1% | -7%
12 | CN(C)[C@@H]1C(O)=C(C(N)=O)C(=O)[C@@]2(O)C(O)=C3C(=O)c4c(O)cccc4[C@@](C)(O)[C@H]3C[C@@H]12 | -50 | -28 | 28.4 | 24.2 | -4% | 33%
13 | Cc1c(Oc2cnc(C(=O)N3CC(C)(O)C3)cn2)ccc2c1B(O)OC2 | 27 | 18 | 102 | 24.8 | -7% | -7%
14 | COc1ccc(OC)c(C2C3=C(CC(C)(C)CC3=O)N(c3ccc(Cl)c(Cl)c3)C3=C2C(=O)CC(C)(C)C3)c1 | 27.8 | 53.7 | -37.4 | -2.6 | 0% | -7%
15 | CCCn1c(CNc2ccccc2O)nc2ccccc21 | 3 | -18 | 29.9 | -29.5 | -7% | -9%
16 | O=C(NCCc1c[nH]c2ccccc12)c1cc2ccccc2oc1=O | 17 | -4 | 19.6 | -84.4 | -6% | 2%
17 | Clc1ccc2c(N3CCN(CCCN4CCN(c5ccnc6cc(Cl)ccc56)CC4)CC3)ccnc2c1 | -5 | 10 | -93 | 7.6 | -8% | -2%
18 | O=C(Nc1cccnc1)c1c(O)c2cccc3c2n(c1=O)CC3 | -19 | 29 | -68.1 | -47.8 | 2% | 1%
19 | CS(=O)(=O)N1CCC(Cn2nc(Cc3cccc4ccccc34)c3c(N)ncnc32)CC1 | 60 | -25 | 33.8 | 27.9 | 26% | 6%
20 | CCN(CC)c1cc(C)c2cc(NC(=O)c3cccc(OC)c3)ccc2n1 | 0 | 26.5 | 16.5 | 12.2 | 4% | -10%

Row | Compound | hypnozoite quantity inhibition [1, 4] | hypnozoite quantity inhibition [1, 5] | schizont net growth area inhibition [2, 4] | schizont net growth area inhibition [2, 5] | hepatic nuclei reduction [3, 4] | hepatic nuclei reduction [3, 5]
21 | CNC1C(OC2C(OC3C(O)C(O)C(N=C(N)N)C(O)C3N=C(N)N)OC(C)C2(O)C=O)OC(CO)C(O)C1O (stereo not drawn) | 14 | -7 | -8.9 | -2.7 | 2% | 12%
22 | Cc1cc(Cl)c(S(=O)(=O)N2CCCC2)cc1OCC(=O)NC1CCCCC1 | 27 | 22 | 27.4 | -17.3 | 2% | -4%
23 | CCc1nc(N)nc(N)c1OCCCOc1ccccc1CCC(=O)O | -24 | 52 | 97 | 62.2 | -9% | -6%
24 | CC1CCCCN1CCCNC(=O)c1ccc2c(c1)sc1nc(-c3ccc(F)cc3)cn12 (stereo not drawn) | -16.2 | 22.1 | -21.2 | 51.9 | -3% | 5%
25 | COc1ccc2c(c1)C1(Nc3ccccc3-c3nc4ccccc4n31)C(=O)N2 (stereo not drawn) | 19 | -63.4 | 67.9 | -107 | -6% | -13%
26 | COc1ccc(CCN2C(=O)c3[nH]nc(-c4cc(Cl)c(C)cc4O)c3C2c2ccccc2F)cc1 (stereo not drawn) | -7 | -38.9 | -25.6 | -7.7 | -1% | -6%
27 | O=C(Nc1nc(-c2ccccn2)cs1)C1CC1c1ccccc1F (stereo not drawn) | 31 | 22 | 49.5 | 7.6 | 0% | -8%
28 | COc1ccc(C2CC(c3cccs3)=NN2C(=O)c2ccco2)cc1OC (stereo not drawn) | -3 | 1 | -13.2 | -52.4 | -8% | 9%
29 | Cc1ccc(S(=O)(=O)N2CCN(C(=O)c3cc(-c4ccccc4)[nH]n3)CC2)cc1 | -19 | -46 | 31.5 | -137 | -6% | 2%
30 | COc1cccc(C=Cc2nc(=O)c3ccccc3o2)c1OC | -15.4 | 42.7 | 31.9 | 35.7 | -4% | 0%
31 | O=C(CCC1CCCCC1)Nc1cccc(-c2nnc(-c3ccco3)o2)c1 | 13 | 40 | 24.2 | -49.9 | 1% | 0%
32 | CC(=O)N(O)CCCCCNC(=O)CCC(=O)N(O)CCCCCNC(=O)CCC(=O)N(O)CCCCCN | -48 | 4.4 ± 26 | 98.7 | 2.1 ± 47 | -4% | -8 ± 9.9%
33 | COc1cc(SC)ccc1C(=O)N1CCCC(C)C1 (stereo not drawn) | -28.8 | 29 | -20.4 | -48.7 | -6% | 0%
34 | O=C(Nc1ccc(N2CCNCC2)nc1)c1oc(-c2ccccc2)nc1C(F)(F)F | -72 | -46 | -15.1 | -31.8 | -6% | -10%
35 | Cc1noc(C)c1C(=O)N1CCCC(c2[nH]c3c(C)cccc3c2-c2ccncc2)C1 (stereo not drawn) | 3 | -28 | 52.1 | 13.3 | -5% | -2%
36 | Cc1ccc(S(=O)(=O)c2c(COC(=O)c3cccc(C)c3)c(-c3ccccc3)nn2C)cc1 | 54.5 | 45 | 97 | 29.2 | -10% | 6%
37 | Cc1cc2ccccc2n1CC(=O)N1CC(C(=O)N2CCCCC2)Oc2ccccc21 (stereo not drawn) | 31 | -25 | 51.8 | -89.5 | 3% | -5%
38 | O=C(Nc1nnc(S)s1)c1cc(Br)ccc1Cl | -7 | 0 | 9.4 | 40.5 | -7% | -2%
39 | Cc1cc(NCCc2ccccc2)nc(NC(=N)Nc2ccc(Cl)cc2)n1 | 34 | -135 | 37.4 | -375 | 4% | -11%
40 | Nc1ncc(-c2ccc(C(=O)N3CCNCC3)cc2)nc1-c1ccc(C(F)(F)F)cc1 | 23 | 2 | 87.9 | 36.2 | -5% | -6%

Exported comma-delimited: entries from further up.
Row,Compound,"hypnozoite quantity inhibition [1, 4]","hypnozoite quantity inhibition [1, 5]","schizont net growth area inhibition [2, 4]","schizont net growth area inhibition [2, 5]","hepatic nuclei reduction [3, 4]","hepatic nuclei reduction [3, 5]"
22,Cc1cc(Cl)c(S(=O)(=O)N2CCCC2)cc1OCC(=O)NC1CCCCC1,27,22,27.4,-17.3,2%,-4%
32,CC(=O)N(O)CCCCCNC(=O)CCC(=O)N(O)CCCCCNC(=O)CCC(=O)N(O)CCCCCN,-48,4.4 ± 26,98.7,2.1 ± 47,-4%,-8 ± 9.9%
37,Cc1cc2ccccc2n1CC(=O)N1CC(C(=O)N2CCCCC2)Oc2ccccc21 (stereo not drawn),31,-25,51.8,-89.5,3%,-5%

(further entries)

Row | Compound | hypnozoite quantity inhibition [1, 4] | hypnozoite quantity inhibition [1, 5] | schizont net growth area inhibition [2, 4] | schizont net growth area inhibition [2, 5] | hepatic nuclei reduction [3, 4] | hepatic nuclei reduction [3, 5]
41 | CCN(CC)C(=O)N1CCN(C)CC1 | 12 | -34 | -20.9 | -4.6 | -10% | 3%
42 | COc1cccc(NC(=O)[C@H](C(C)C)n2c(=O)[nH]c3ccccc3c2=O)c1 | 44.8 | 67.9 | 103 | 36.1 | 10% | -2%
43 | Clc1cccc(C(c2ccc(CN3CCNCC3)cc2)n2ccnc2)c1 (stereo not drawn) | 6 | 7 | -65.7 | -60.3 | -9% | 2%
44 | CC(C)CNC(=O)c1c(N)n(CCc2ccccc2F)c2nc3ccccc3nc12 | -23.6 | 35.9 | 23.7 | 14.1 | -13% | -3%
45 | CCOC(=O)c1ccc2nc(-c3ccccc3)cc(O)c2c1 | -13.9 | 31.3 | 7.4 | 14.6 | -13% | 3%
46 | CC(C)(C)OC(=O)N1CCN(c2nccc(-c3ccc(-c4ccc(Cl)cc4)s3)n2)CC1 | -88 | -85 | 41.1 | -104 | -2% | -5%
47 | CC(=O)N[C@@H](C(=O)O)C(C)(C)S | -55 | 31 | -43.5 | 64 | -14% | 0%
48 | CC(C)(C)C1CCC(CC2=C(O)C(=O)c3ccccc3C2=O)CC1 (stereo not drawn) | -51 | -44 | 67.2 | 12.6 | -4% | -3%
49 | CCC(C)NCC(O)(c1ccc(Cl)cc1)c1ccc(Cl)cc1 (stereo not drawn) | -0.6 | 40.1 | -9.3 | -8 | 2% | -7%
50 | CC1COC2(CCN(c3nc(=O)c4cc(C(F)(F)F)cc([N+](=O)[O-])c4s3)CC2)O1 (stereo not drawn) | -54 | -44 | 14.4 | -87.8 | 0% | -1%
51 | COc1ccc2sc(N(Cc3cccnc3)C(=O)c3ccc(C#N)cc3)nc2c1 | 14.5 | 31.9 | 43 | -22.8 | -4% | -8%
52 | CCN(CC)S(=O)(=O)c1ccc(Cl)c(C(=O)Nc2ccc3nc(C)sc3c2)c1 | 34 | 32 | 57.5 | -116 | 1% | 6%
53 | CC(c1cc(Cl)cc(Cl)c1)N(C)c1ncc2c(N)nc(N)nc2n1 (stereo not drawn) | 35 | -31 | -7.4 | -73.8 | 17% | 1%
54 | Cc1ccc2c(c1C)NC(=O)C21NN=C(c2ccccc2)S1 (stereo not drawn) | 24 | 3 | 47.5 | -18.1 | 16% | 19%
55 | CCN(CC)CCCN1CCN(C(=O)c2cccc(-c3noc(C(F)(F)F)n3)c2)CC1 | 1 | -18 | 13.5 | -89.6 | 0% | -6%
56 | COc1ccc(CCN2CCC(CN(C)Cc3cnn(-c4ccccc4)c3)CC2)cc1 | -8.8 | 31.9 | 14.9 | -11.6 | 2% | -1%
57 | COc1ccc(C(=O)Nc2nonc2-c2ccc(OC)c(OC)c2)cc1Cl | 2.5 | -6.2 | -0.4 | -9.7 | -4% | -7%
58 | COc1ccc2c(=O)cc(C(Cl)(Cl)Cl)oc2c1 | -11.4 | 26.5 | -8.1 | -62.9 | 0% | -1%
